From patent US7354991B2, “Peptides for the diagnosis of schizophrenia” (Yeda Research and Development Co. Ltd, priority 2001, dated 2008)

Test system: plasma samples from non schizophrenic individuals
Test: Enzyme immunoassay: binding of biotin-labeled peptide on streptavidine coated tubes to control plasma
Set-up: species or system human
Details: seems to be feasible; arbitrary cut-off definitions
Experimental: • 1. Patients and control persons—Thirty-nine schizophrenic patients participated in this study. The following parameters were recorded: gender, age, duration of schizophrenia, number of hospitalizations, years of education and the psychiatric status (PANSS). Fifty plasma samples were obtained from a local blood bank. • 2. Plasma—Venous blood was drawn with heparin as […] from patients and control subjects. Plasma was obtained after centrifugation (4000 g; 15 mins. 4° C.). • 3. Peptide synthesis and biotin labeling—The peptides were synthesized on an Abimed 522 at a 10 micromol scale by Eurosequence b.v., (Nijenborgh 4: 9747 AG Groningen; The Netherlands) and labeled at the amino terminal with biotin containing a six carbon spacer. Peptide purity was routinely assessed by RP-HPLC and, when considered necessary, by laser desorption mass spectroscopy. The peptides were routinely dissolved in 1 ml water/DMF/DMSO (1:1:1; v/v/v). • 4. […] The absorbence was read at 450 nm spectrophotometrically. […]
Therefore, an experiment was carried out with the biotin-LVVGLCK as follows: the peptide was biotin-labeled and coated onto streptavidine coated tubes as explained above. Plasma samples of 39 schizophrenic patients and 50 control non schizophrenic individuals were tested with the coated peptide and the level of binding was determined by the enzyme immunoassay described above.

With LVVGLCK the “specificity of the diagnostic test” value was greater than 90%.
